Results as given in patent publication US20180142026A1.
No constants are given. Whether binding was seen depends on the method and setting. Some entries that bind do so weakly or less than the wild type.

Legend:
[1] = target: T1, murine CSF-1R on M-NFS-60 cells (murine) (UniProt P09581); experiment: flow cytometry on M-NFS-60 cells; 0.5 ug/ml recombinant murine CSF-1, detected with biotinylated anti-murine CSF-1 antibody and Alexafluor 488 streptavidin
T1 sequence (looked up): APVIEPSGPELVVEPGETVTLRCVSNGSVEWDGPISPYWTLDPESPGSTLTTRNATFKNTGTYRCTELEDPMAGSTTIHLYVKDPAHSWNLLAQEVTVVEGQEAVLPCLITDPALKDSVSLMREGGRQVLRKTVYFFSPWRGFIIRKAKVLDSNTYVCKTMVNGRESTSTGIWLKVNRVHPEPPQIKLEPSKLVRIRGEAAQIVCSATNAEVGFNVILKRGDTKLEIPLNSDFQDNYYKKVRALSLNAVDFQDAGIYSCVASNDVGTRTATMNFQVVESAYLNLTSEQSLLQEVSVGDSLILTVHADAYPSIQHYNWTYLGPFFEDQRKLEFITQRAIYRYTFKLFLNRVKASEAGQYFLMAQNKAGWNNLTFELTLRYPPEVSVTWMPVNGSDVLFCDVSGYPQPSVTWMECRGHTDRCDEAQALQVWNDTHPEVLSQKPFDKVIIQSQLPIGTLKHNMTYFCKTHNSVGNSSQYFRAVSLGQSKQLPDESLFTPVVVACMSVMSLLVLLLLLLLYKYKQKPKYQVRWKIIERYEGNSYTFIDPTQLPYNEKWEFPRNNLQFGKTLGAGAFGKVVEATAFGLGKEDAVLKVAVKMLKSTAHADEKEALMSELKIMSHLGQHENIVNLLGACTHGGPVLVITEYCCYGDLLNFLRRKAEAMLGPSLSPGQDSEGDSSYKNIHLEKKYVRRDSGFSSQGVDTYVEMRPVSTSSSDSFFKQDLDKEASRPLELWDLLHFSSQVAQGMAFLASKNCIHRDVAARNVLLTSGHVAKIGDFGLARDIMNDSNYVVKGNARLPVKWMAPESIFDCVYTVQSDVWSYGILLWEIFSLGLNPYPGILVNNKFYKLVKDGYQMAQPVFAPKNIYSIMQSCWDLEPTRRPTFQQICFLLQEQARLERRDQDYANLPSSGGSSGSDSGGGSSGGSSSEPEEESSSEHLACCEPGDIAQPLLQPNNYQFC

[2] = target: T1, murine CSF-1R on M-NFS-60 cells (murine); experiment: flow cytometry on M-NFS-60 cells

binding [1]: binds
binding [2]: binds
B1: recombinant murine CSF-1 (ligand, UniProt P07141 33-187, looked up)
chain: KEVSEHCSHMIGNGHLKVLQQLIDSQMETSCQIAFEFVDQEQLDDPVCYLKKAFFLVQDIIDETMRFKDNTPNANATERLQELSNNLNSCFTKDYEEQNKACVRTFHETPLQLLEKIKNFFNETKNLLEKDWNIFTKNCNNSFAKCSSRDVVTKP
